Earlier results as cited in patent US8741896B2, “Pyrazolopyrimidine derivatives” (Merck Patent GmbH, priority 2009, dated 2014).
At least one structure is not confirmed: it was looked up by name or label, or the drawing left a doubt.

Key:
neutrophil = conditions: cited from earlier work
phospholipases = conditions: cited from earlier work
neutrophils = conditions: treatment of neutrophils; Thelen et al. 1994; cited from earlier work

Row | SMILES | neutrophil migration and superoxide release (neutrophil) | inhibitory activity on phospholipases (phospholipases) | fMLP-induced respiratory burst response (neutrophils)
1 | O=c1cc(N2CCOCC2)oc2c(-c3ccccc3)cccc12 [LY294002] | block | slight inhibitory activity | –
2 | COC[C@H]1OC(=O)c2coc3c2[C@@]1(C)C1=C(C3=O)[C@@H]2CCC(=O)[C@@]2(C)C[C@H]1OC(C)=O [wortmannin] | block | – | prevents
